# Primary screen of a compound library

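Whole-cell assay for inhibitors of Mycobacterium tuberculosis growth, labelled Cornell in the record; the read-out is not stated. The concentration is filed as 10 mM, unlikely as a test dose, so the dose is not known. Higher means stronger inhibition (inferred from two other growth screens of the library). Of about 53,000 compounds tested this way, about 900 (1.7%) reached 50% or more in at least one test.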

Each number is a percent effect as filed.
How 0% and 100% were set is not recorded. Most values in the screen are low, and negative values occur.
Compounds were drawn at random from those tested, without regard to their results.

structure	effect
Cc1cn2c(n1)CCC(NC(=O)CCC1CC1)C2 (stereo not drawn)	3.37
NC(=O)CCn1cc(CNCCCc2csc(N)n2)c2ccccc21	-31.39
O=C(O)C(F)(F)F.O=C1CCCN1Cc1nnc2n1CCN(Cc1ccco1)CC2	19.34
[H][C@@]12CN(C(C)=O)CCO[C@]1([H])CN(S(=O)(=O)c1ccccc1F)C2	-41.6
O=C(c1ncn2c1CNS(=O)(=O)c1ccccc1-2)N1CCCCC1	-23.22
Cc1ccc(F)c(-n2nnc(C(=O)O)c2-c2ccncc2)c1	10.99
Cn1c(N2CCOCC2)nc2cc(C(=O)NCc3cccnc3)ccc21	-2.793
O=C(c1cnccn1)N1CCCC(Cc2ccccn2)C1 (stereo not drawn)	-3.564
Cc1nc(CN2C(=O)CCC23CCN(Cc2ccccn2)CC3)cs1.O=C(O)C(F)(F)F.O=C(O)C(F)(F)F	14.19
CC(C)NC(=O)c1sccc1N(C)S(=O)(=O)c1ccc(Cl)cc1	3.015
CN1CCC2(COCCN(Cc3ccc4c(c3)OCO4)C2)C1.O=C(O)C(F)(F)F.O=C(O)C(F)(F)F (stereo not drawn)	24.4
CS(=O)(=O)N1CCC(CNc2c(Cl)cccc2C#N)CC1	10.54
COc1cccc(CNCc2cccnc2)c1	-22.74
CCSCCn1cc(-c2nccs2)nn1	-2.237
Cc1csc(NC(=O)C2(C)CCCO2)n1 (stereo not drawn)	19.95
CCc1ccc(C2CC(=O)Nc3cc(OC)c(NS(C)(=O)=O)cc32)o1 (stereo not drawn)	21.35
O=C(c1ccncc1)N1CCC2(CC1)CC(Oc1cccnc1)CO2 (stereo not drawn)	10.46
Cc1oc(-c2ccsc2)nc1CN1CCCC(c2ccnn2C)C1 (stereo not drawn)	15.09
Cc1cnc(N2CCC3(CCN(Cc4csc(C)n4)C3=O)C2)nc1.O=C(O)C(F)(F)F (stereo not drawn)	3.04
O=C(O)C(F)(F)F.O=C(O)c1c(NC2CCC2)ncc2c1CCN(C1CCOC1)C2 (stereo not drawn)	17.82
[H][C@]12CCN(C(=O)CN(C)C)C[C@@]1([H])OCCN(Cc1csc(C)n1)C2	-25.56
CCN(Cc1nc(COC)no1)Cc1cccnc1NC	17.8
Cc1c(C(C)NC2CCOCC2)cnn1-c1ccc(F)cc1F (stereo not drawn)	3.223
CCOc1cc(C(=O)n2cccn2)cc(OCC)c1OCC	30.18
Cc1nc(Nc2ncc(C)s2)cc(C2CCCN2S(C)(=O)=O)n1 (stereo not drawn)	1.998
Clc1ccc(CN2CCc3c(ncn3C3CC3)C2)c2ncccc12	-15.61
CN(C)C1CCC2(CCN(Cc3nccn3C)CC2)c2ccccc21.O=C(O)C(F)(F)F.O=C(O)C(F)(F)F (stereo not drawn)	12.98
Cc1nc2c(C)cccc2cc1C(=O)N1CCC2(CC1)NCCNC2=O	8.73
Cc1n[nH]c2nc(-c3ccccc3O)cc(C(=O)O)c12	12.71
Cc1cc(OCC(O)c2nc3c([nH]2)CC(C)(C)CNC3=O)ccc1Cl (stereo not drawn)	36.42
Cc1ncc(S(=O)(=O)Nc2ccnn2C(C)C)[nH]1	85.6
COc1ccc(CNc2nc(C3CC3)nc3c(C)nn(C)c23)cc1	31.96
Fc1cnc(N2CCOCC3(CCCN(c4cnccn4)C3)C2)nc1 (stereo not drawn)	-1.478
CCCNC(=O)c1cc(Br)cc(S(=O)(=O)N2CCOCC2)c1F	-5.362
[H][C@]12CCN(Cc3nccs3)[C@@]1([H])C[C@H](C(=O)N1CCN(C)CC1)O2	15.39
O=C(O)C(F)(F)F.[H][C@@]12COC[C@]1(CNC(=O)C1CC1)CN(Cc1cccc(C)c1)C2	-4.448
c1ccc(OCc2ccncc2)c(CNC2CCc3ncnn3C2)c1 (stereo not drawn)	-10.04
[H][C@@]12CCC(=O)N(CCc3ccccc3)[C@]1([H])CCN(c1ccnc(C)n1)C2	15.23
CCC(=O)NCc1cc(C2CC2)n(C2CCCC2)n1	-32.57
O=C(CCc1nc(Cl)n[nH]1)NC1CCCN(CC2CCCCC2)C1 (stereo not drawn)	35.77
O=C(O)C1CN(c2cncc(Cc3ccccc3)n2)C1	6.746
O=C(c1ccccn1)N1Cc2nccn2CC(COc2cccnc2)C1 (stereo not drawn)	-7.138
CN(Cc1ccccc1O)CC1CCCN(CCc2ccc(Cl)cc2)C1 (stereo not drawn)	28.54
Cc1nccn1CCCNc1ccc(Cl)c(C#N)n1	7.057
CC(C)c1cc(NC(=O)CN2CCc3c(nc(C(C)C)n3C)C2)on1	-7.33
CC(=O)Nc1nc(C(=O)NCCOc2ccc(C)cc2)cs1	-13.03
CC(C)c1nn(C)c(N(C)C)c1CNCc1cscn1.Cl	20.64
CC(C)c1nn(C)cc1CNCc1ccnc(N(C)C)c1.Cl	-6.254
O=C(O)C(F)(F)F.[H][C@]12CN(c3nncs3)C[C@@]1(C(=O)O)CCCN(C1CCOC1)C2 (stereo partly drawn)	-7.298
Cl.O=C(NC1CCCC1)c1ccc(C2CCCNC2)nc1 (stereo not drawn)	-9.538
Cc1cccc(N(CCC(N)=O)CC(=O)NC2CCCC2)c1	7.3
Cc1cc(CN2CCCC2c2c(C)nn(C)c2Cl)no1 (stereo not drawn)	11.46
O=S1(=O)CCC(c2nnc(-c3cnc4onc(C5CCCC5)c4c3)o2)C1 (stereo not drawn)	23.17
CC1(c2ccccc2)CCC(=O)N(CCN2CCOCC2)C1 (stereo not drawn)	-12.18
Cc1nn(CC(=O)O)c2nccc(-c3ccc(F)cc3)c12	32.42
[H][C@@]12CN(C3CCOCC3)C[C@]1([H])N(CCCc1ccc(OC)cc1)C(=O)O2	-9.972

Once more, the final 4:

{"structure": "O=S1(=O)CCC(c2nnc(-c3cnc4onc(C5CCCC5)c4c3)o2)C1", "stereo": "stereo not drawn", "effect": 23.17}
{"structure": "CC1(c2ccccc2)CCC(=O)N(CCN2CCOCC2)C1", "stereo": "stereo not drawn", "effect": -12.18}
{"structure": "Cc1nn(CC(=O)O)c2nccc(-c3ccc(F)cc3)c12", "effect": 32.42}
{"structure": "[H][C@@]12CN(C3CCOCC3)C[C@]1([H])N(CCCc1ccc(OC)cc1)C(=O)O2", "effect": -9.972}

Source: ChEMBL document CHEMBL3988442, “University of Dundee, Small-Polar-MMV Screening Library” (2021).